## Library screen at single concentrations

Sequences of proteins named here, by UniProt entry; tags and fusion partners are left off. Residues count along the entry.
UniProt A4I591, 1-473: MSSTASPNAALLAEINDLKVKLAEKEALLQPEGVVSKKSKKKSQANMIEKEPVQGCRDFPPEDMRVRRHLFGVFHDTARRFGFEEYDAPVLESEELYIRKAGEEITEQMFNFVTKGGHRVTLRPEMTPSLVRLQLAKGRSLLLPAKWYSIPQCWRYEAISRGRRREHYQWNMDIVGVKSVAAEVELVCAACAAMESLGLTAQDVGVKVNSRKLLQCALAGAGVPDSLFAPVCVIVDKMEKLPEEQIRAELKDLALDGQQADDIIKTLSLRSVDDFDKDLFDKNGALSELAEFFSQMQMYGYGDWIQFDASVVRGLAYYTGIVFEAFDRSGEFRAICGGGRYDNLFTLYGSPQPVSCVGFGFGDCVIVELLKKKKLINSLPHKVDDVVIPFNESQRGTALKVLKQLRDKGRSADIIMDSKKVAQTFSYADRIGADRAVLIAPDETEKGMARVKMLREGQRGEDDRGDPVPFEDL
UniProt I6X8D2, whole entry: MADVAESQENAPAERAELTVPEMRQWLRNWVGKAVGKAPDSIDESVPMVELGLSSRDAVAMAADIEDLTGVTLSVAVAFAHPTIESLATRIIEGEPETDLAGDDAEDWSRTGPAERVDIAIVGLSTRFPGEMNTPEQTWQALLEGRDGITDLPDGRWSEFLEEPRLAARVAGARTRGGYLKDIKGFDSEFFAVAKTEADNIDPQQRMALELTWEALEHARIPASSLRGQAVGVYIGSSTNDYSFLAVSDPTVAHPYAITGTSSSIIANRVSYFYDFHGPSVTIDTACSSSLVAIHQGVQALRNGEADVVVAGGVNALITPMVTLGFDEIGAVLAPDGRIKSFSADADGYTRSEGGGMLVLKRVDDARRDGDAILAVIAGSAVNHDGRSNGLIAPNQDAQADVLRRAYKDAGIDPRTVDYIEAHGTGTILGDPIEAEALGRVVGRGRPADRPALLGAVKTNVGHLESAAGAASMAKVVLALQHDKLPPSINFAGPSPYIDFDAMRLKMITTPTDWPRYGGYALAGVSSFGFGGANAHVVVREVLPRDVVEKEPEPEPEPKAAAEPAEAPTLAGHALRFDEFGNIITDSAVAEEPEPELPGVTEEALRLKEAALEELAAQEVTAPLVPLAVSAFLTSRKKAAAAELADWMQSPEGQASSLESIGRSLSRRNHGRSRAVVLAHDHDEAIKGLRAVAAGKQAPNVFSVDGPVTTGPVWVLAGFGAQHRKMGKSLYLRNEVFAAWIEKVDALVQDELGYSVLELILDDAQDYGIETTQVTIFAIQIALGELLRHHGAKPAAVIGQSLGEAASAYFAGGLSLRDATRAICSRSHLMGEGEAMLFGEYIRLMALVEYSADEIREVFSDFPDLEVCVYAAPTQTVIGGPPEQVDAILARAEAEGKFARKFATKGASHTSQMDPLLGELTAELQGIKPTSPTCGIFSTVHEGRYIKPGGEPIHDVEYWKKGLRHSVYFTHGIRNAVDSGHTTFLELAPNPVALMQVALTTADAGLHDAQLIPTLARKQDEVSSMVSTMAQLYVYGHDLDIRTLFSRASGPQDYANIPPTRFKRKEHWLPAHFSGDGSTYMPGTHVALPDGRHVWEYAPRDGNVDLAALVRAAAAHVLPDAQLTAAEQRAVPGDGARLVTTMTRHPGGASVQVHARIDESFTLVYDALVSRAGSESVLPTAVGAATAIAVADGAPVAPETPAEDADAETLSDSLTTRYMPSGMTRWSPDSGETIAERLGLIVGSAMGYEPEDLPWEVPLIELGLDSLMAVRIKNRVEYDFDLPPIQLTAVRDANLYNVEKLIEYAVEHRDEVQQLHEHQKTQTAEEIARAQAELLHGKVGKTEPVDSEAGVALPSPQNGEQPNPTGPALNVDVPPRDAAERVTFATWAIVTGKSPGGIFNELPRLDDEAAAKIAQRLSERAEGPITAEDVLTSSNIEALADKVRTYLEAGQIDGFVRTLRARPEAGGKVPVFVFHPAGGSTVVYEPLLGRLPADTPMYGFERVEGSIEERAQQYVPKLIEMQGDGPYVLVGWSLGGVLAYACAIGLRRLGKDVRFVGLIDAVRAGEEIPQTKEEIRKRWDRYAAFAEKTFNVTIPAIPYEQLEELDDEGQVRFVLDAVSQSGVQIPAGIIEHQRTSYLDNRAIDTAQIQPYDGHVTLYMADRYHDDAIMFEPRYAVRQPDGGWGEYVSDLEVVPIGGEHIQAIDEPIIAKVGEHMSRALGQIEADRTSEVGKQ

Source: ChEMBL document CHEMBL3988442, “University of Dundee, Small-Polar-MMV Screening Library” (2021).

A: 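Enzyme assay of histidyl-tRNA synthetase; the read-out is not stated. Target: Histidine-tRNA ligase, Leishmania infantum (UniProt A4I591). Compounds at 30 µM. Direction is inferred from retests: higher values go with stronger inhibition. The assay is labelled LdHisRS but filed under L. infantum. About 69,000 compounds were tested under these conditions; 0.6% (about 410) showed 50% or more at least once.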
B: 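Polyketide synthase Pks13, Mycobacterium tuberculosis (UniProt I6X8D2). Enzyme assay of the thioesterase domain of polyketide synthase 13; the read-out is not stated. Compounds at 30 µM. Higher reads as stronger inhibition (inferred from which compounds were picked for retests). Of about 67,000 compounds tested this way, about 300 (0.46%) reached 50% or more in at least one test.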

Values are the deposited “Percent Effect”, in %.
How 0% and 100% were set is not recorded. Most values in the screen are low, and negative values occur.
The compounds are a random part of those screened.
A dash means the value is not listed here; it may have been measured.

| SMILES | A | B |
|---|---|---|
| `CCCC1COCCN1Cc1ccc(NC(C)=O)cc1` (centres unmarked) | 12% | -11.62% |
| `CC(C)[C@@H]1CN(S(=O)(=O)c2cccc(C(=O)O)c2)C[C@H]1N(C)C` | -8.791% | -12.16% |
| `CN(C)CCOCC1CN(C(=O)N2CCCC2)Cc2ccnn2C1` (centres unmarked) | 31.43% | -26.71% |
| `Cc1ncc(CNC(=O)CCc2cccs2)c(C2CCCN2C)n1` (centres unmarked) | 26.8% | 5.481% |
| `O=C(C1CCC1)N1CCCC1c1nnc2n1CCCCC2` (centres unmarked) | 7.692% | -10.43% |
| `NC(=O)N1CCC2(CCN(Cc3ccccn3)C2=O)C1` (centres unmarked) | 4.425% | 0.3584% |
| `CC(C)NC(=O)N1CCC2(CC1)NC(=O)CC2c1ccncc1` (centres unmarked) | 19.3% | - |
| `O=C(c1cccc(Cl)c1)N1CC[C@H]2[C@H]1CCN2CC1CCOCC1` | 19.71% | -33.57% |
| `Cc1cc(C)c2c(c1)C(NC(=O)CSCc1ccncc1)CCO2` (centres unmarked) | 14.04% | -0.02728% |
| `CN(Cc1ccc(F)cc1)C(=O)Cn1nc(-c2ccc(F)cc2)oc1=O` | -14.29% | -27.4% |
| `Cc1cc(C)c(CNC(=O)C(C)Oc2ccccc2F)c(=O)[nH]1` (centres unmarked) | 23.08% | -10.05% |
| `Cc1nc(CN2CCN(C(=O)c3cc(C4CC4)on3)CC2)cs1` | 5.333% | -23.02% |
| `CN(C)C(=O)CN1CCC2(CCN(S(=O)(=O)C3CC3)CC2)C1=O` | 21.15% | -9.18% |
| `CN(CC(=O)N1CCC(N(C)c2ccccc2)CC1)c1cnccn1` | 16.51% | -1.3% |
| `Cc1cccc(C(=O)NCc2ccc(N3CCCCC3)nc2)n1` | 18.92% | -7.134% |
| `COc1cc(Br)c(CNc2ccn(CCC(N)=O)n2)cc1OC` | 3.922% | 1.703% |
| `CN(C)c1ccc(C(=O)NCc2ccc(N3CCOCC3)cc2)cn1` | -2.083% | -1.832% |
| `CC(C)NC(=O)N1CC[C@@H]2CN(S(C)(=O)=O)CCO[C@@H]2C1` | 15.32% | -3.766% |
| `CC(C)COC(C)C(=O)NCc1ccc(N(C)C)cc1` (centres unmarked) | 26.67% | -8.679% |
| `CC(C)(C)CCN1CCC(c2nnc(Cn3cccn3)n2C2CC2)CC1` | 20.99% | -12.47% |
| `CC(C)c1nc(CN(C)S(=O)(=O)c2cccs2)cs1` | -2.222% | 4.199% |
| `O=C(c1cnc2c(cnn2C2CCCC2)c1)N1CCN(CCO)CC1` | 8.929% | 90.8% |
| `c1ccc(O[C@H]2COCCN(CC3CC3)C2)cc1` | 17.57% | -36.8% |
| `Cc1nc(Nc2nccs2)cc(C2CN(C(C)C)C2)n1` | 8.571% | 45.13% |
| `CCc1cc(=O)[nH]c(-c2ccc(NCCc3ccc(O)cc3)nc2)n1` | 19.35% | -16.88% |
| `Cc1nc(CN2CCCCC2Cn2cncn2)nc2ccccc12` (centres unmarked) | 32% | -27.15% |
| `CCCN(C(=O)c1cnccn1)c1nc2c(s1)CCc1c-2cnn1C` | 94.79% | 37.93% |
| `CN(C(=O)c1ccncc1F)c1ccccc1S(C)(=O)=O` | 8% | - |
| `Cc1nn(C)c(N2CCCN(C)CC2)c1CNC(=O)CC1CCCC1` | 22.12% | -25.1% |
| `COCC(=O)NCc1cccnc1-n1cnc2ccccc21` | -5.556% | -8.43% |
| `FC(F)(F)CCc1ccnc(N[C@H]2CC[C@H](n3cnnc3)CC2)n1` | 21.21% | -1.366% |
| `Cn1cccc1C(=O)N[C@@H]1CN(Cc2ccsc2)[C@@H]2COC[C@@H]21` | 20% | -13.52% |
| `CCCn1ccnc1-c1nccn1CCC(N)=O` | 17.6% | 10.46% |
| `COCC1c2nnn(CC3CC3)c2CCN1C(=O)c1sccc1C` (centres unmarked) | 9.211% | -22.64% |
| `Cc1csc(NC(=O)c2ccc(NC(=O)N3CCOCC3)cc2)n1` | -1.124% | -5.553% |
| `CC(=O)NC1CCN(c2nc(N)nc3c2CCCC3)C1` (centres unmarked) | 3.419% | -4.28% |
| `CC(c1cccc(S(N)(=O)=O)c1)N(C)CCCOc1ccccc1` (centres unmarked) | 5.128% | -5.892% |
| `CCCC(C)(C)NC(=O)CCN1CCOC1=O` | 12.5% | -14% |
| `CCc1nc(CN2CCCN(C(=O)CCOC(C)C)CC2)cs1` | -48.21% | 8.654% |
| `COCC(=O)N1CCCC(C(=O)c2cnn(-c3ccc(F)cc3)c2N)C1` (centres unmarked) | -1.449% | -18.6% |
| `Cc1cc(C)n(CC2CN(Cc3noc(C4CC4)n3)CCO2)n1` (centres unmarked) | 17.09% | -12.09% |
| `CC(C)(C)c1ncc(CNc2ccccc2Cn2cncn2)s1` | 0% | -0.566% |
| `Cc1cnn(CC2CCCCN2Cc2nnc(-c3ccco3)o2)c1` (centres unmarked) | 33.33% | -8.518% |
| `Cc1cc2cc(CNC3CCN(S(C)(=O)=O)CC3)oc2cc1C` | 22.86% | -47.17% |
| `Cc1ccc(CCNC(=O)Cn2nc(C)n(Cc3ccccc3)c2=O)s1` | -595.7% | -10.75% |
| `Cn1ccnc1CN1CCC(CCCc2ccccn2)(C(N)=O)CC1` | 9.929% | -2.838% |
| `COCCNC(=O)[C@@]12CCO[C@@H]1CCN(Cc1c(C)noc1C)C2` | 0% | -9.27% |
| `CC(C#N)CN(C)Cc1cc(Cl)cc2cccnc12` (centres unmarked) | 23.68% | -35.13% |
| `Cn1cccc1C(O)CNC(=O)c1ccc2nsnc2c1` (centres unmarked) | 7.317% | 3.615% |
| `c1cnc2c(c1)cc([C@H]1CCCO1)n2CCN1CCCCC1` | 13.89% | -21.08% |
| `CCN(CC)C(CNC(=O)c1ccnc(N(C)C)c1)c1ccsc1` (centres unmarked) | 17.33% | -14.34% |
| `CNC(=O)c1ccc(NC(=O)NC(C)CCc2cccn2C)c(C)c1` (centres unmarked) | 9.677% | -13.48% |
| `CO[C@H]1CN(C(C)C)C[C@@H]1NC(=O)c1cc(COc2ccccc2)[nH]n1` | 6.452% | -2.254% |
| `Cn1ncc2c(N3CCS(=O)(=O)CC3)nc(-c3cccnc3)nc21` | 9.735% | 2.463% |
| `CC1CCN(c2ccc(CNC(=O)NCCn3ccnc3)cn2)CC1` | 15.87% | -18% |
| `O=C(N[C@@H]1CCN(Cc2ccc(F)cc2F)C[C@H]1O)c1cccnc1` | 18.52% | -6.204% |
| `CN(C)CCN(C)c1nc(CCc2ccccc2)nc2c1cnn2C` | 7.018% | -10.93% |
| `Cc1cnc(N2CCc3c(cnc(C)c3C(=O)O)C2)nc1` | 12.82% | -9.981% |
| `Cc1n[nH]c(C)c1-c1nccnc1CC1CCCN(C)C1` (centres unmarked) | -1.042% | -16.54% |
| `CCC(=O)N1CCCC1c1n[nH]cc1-c1ccccc1F` (centres unmarked) | 12.77% | 2.24% |
| `CN(C)c1ncccc1CNc1cc(N2CCCC2CO)ncn1` (centres unmarked) | 3.571% | -6.411% |
| `COCCN1CCN(c2ncnc3nc(C)cc(C)c23)CC1` | 18.03% | 3.187% |
| `O=C(O)c1cc(-c2cc[nH]n2)cc(S(=O)(=O)N2CCCCCC2)c1` | 10.26% | -28.01% |
| `O=C1CCCN1CCCN1CCCCC1Cn1cncn1` (centres unmarked) | 17.81% | -30.31% |
| `CN(Cc1ccc(F)cc1)C(=O)NCC1(N2CCOCC2)CCSC1` (centres unmarked) | 13.46% | -11.84% |
| `Fc1cccc(Oc2ccc(CNCC3CNc4ccnn4C3)cn2)c1` (centres unmarked) | 49.32% | -2.287% |
| `CN(C)C(=O)Cc1nc(CN2CCOC(Cn3cccn3)C2)cs1` (centres unmarked) | 0% | -22.81% |
| `CCN1CCN(c2ccc(NC(C)c3nc(C(C)C)no3)c(C)c2)CC1` (centres unmarked) | 28.26% | -7.322% |
| `CN(Cc1cccnc1)C1CC2(CCN(C(=O)c3cnccn3)CC2)C1` | 2.632% | -29.97% |
| `c1ccc(C(c2ccccc2)N2CCN(CCn3cncn3)CC2)cc1` | 12.5% | -18.88% |
| `COc1ccc(NC(=O)N2CCCCC2c2ncc[nH]2)cc1` (centres unmarked) | 19.18% | -18.11% |
| `COCCNC(=O)C1(c2ccc(C)c(OC)c2)CCCC1` | -0.8772% | -3.256% |
| `NC(=O)N1CC[C@H](O)[C@@H]1Cc1ccccc1` | 2.752% | -9.262% |
| `O=C(NCC1CCCO1)c1nc2c(s1)CCCN2c1ncccn1` (centres unmarked) | 4.167% | - |
| `CC(C)c1nccn1C(C)C(=O)NC1CCN(S(C)(=O)=O)CC1` (centres unmarked) | 10.67% | - |
| `CCn1nc(C)c2nc(C(C)C)nc(N3CCN(C)CC3)c21` | 7.08% | 37.71% |

Repeated from the top, 8 entries:

SMILES,A,B
CCCC1COCCN1Cc1ccc(NC(C)=O)cc1 (centres unmarked),12%,-11.62%
CC(C)[C@@H]1CN(S(=O)(=O)c2cccc(C(=O)O)c2)C[C@H]1N(C)C,-8.791%,-12.16%
CN(C)CCOCC1CN(C(=O)N2CCCC2)Cc2ccnn2C1 (centres unmarked),31.43%,-26.71%
Cc1ncc(CNC(=O)CCc2cccs2)c(C2CCCN2C)n1 (centres unmarked),26.8%,5.481%
O=C(C1CCC1)N1CCCC1c1nnc2n1CCCCC2 (centres unmarked),7.692%,-10.43%
NC(=O)N1CCC2(CCN(Cc3ccccn3)C2=O)C1 (centres unmarked),4.425%,0.3584%
CC(C)NC(=O)N1CCC2(CC1)NC(=O)CC2c1ccncc1 (centres unmarked),19.3%,-
O=C(c1cccc(Cl)c1)N1CC[C@H]2[C@H]1CCN2CC1CCOCC1,19.71%,-33.57%